Measured values as given in PubChem BioAssay AID652054 (National Center for Advancing Translational Sciences (NCATS), 2013).
Where “and” joins values, the source holds several entries; their conditions need not be identical. Equal entries are not always repeated. The whole screen tested about 360,000 compounds, of which about 9,100 (2.5%) were called active. This list was built around the results that the source calls inconclusive (neither active nor inactive); the mix of calls is not that of the screen. Cut-off read from the data, not from the text of the source: active = max response below about -50%; inconclusive = no clear call, values can overlap the other calls; inactive = above that.

The chains behind the UniProt entries cited, without tags or fusion partners.
UniProt P35462, whole entry, looked up: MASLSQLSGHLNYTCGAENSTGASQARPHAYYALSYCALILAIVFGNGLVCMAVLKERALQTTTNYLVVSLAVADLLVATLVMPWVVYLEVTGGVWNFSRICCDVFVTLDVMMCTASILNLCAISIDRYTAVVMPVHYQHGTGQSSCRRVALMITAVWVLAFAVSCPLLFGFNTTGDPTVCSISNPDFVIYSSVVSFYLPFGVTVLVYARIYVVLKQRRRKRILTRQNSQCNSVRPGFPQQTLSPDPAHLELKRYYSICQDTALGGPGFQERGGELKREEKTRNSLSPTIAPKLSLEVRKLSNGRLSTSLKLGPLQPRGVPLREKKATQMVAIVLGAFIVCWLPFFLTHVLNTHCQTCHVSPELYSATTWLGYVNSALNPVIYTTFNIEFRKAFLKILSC

molecular target: D(3) dopamine receptor (Homo sapiens) (UniProt P35462); assay: qHTS of D3 Dopamine Receptor Antagonist: qHTS; details: D3R cells, DiscoveRx beta-arrestin luminescence, antagonist mode; hits give low values
How it was run: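 Cells expressing the human receptor were seeded at 1500 cells/well, incubated overnight at 37 degrees C in 5% CO2, then exposed to library compounds with dopamine controls for 90 minutes at 37 degrees C before luminescent detection.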
% is set by controls: 0 for no effect and ±100 for the full control effect.

| SMILES | max response, negative = inhibition |
| --- | --- |
| OCCN1CCN(c2cc(-c3ccccc3)c3ccccc3n2)CC1 | active: -80.7% |
| Cc1ccc2c(c1)[C@H]1[C@H](CO2)[C@H](c2ccccc2)[C@]2(C)C(=O)N(C)CC(=O)N12 | inconclusive: -42.5% |
| CC(C)C[C@H](N)c1nnc(S(=O)(=O)Cc2ccc(F)cc2)o1 | inconclusive: -44.3% |
| CCOc1ccc(Nc2n[nH]c(=S)s2)cc1 | inactive: -14% |
| COc1cc(OC)c2ccc(=O)oc2c1C(CCN1CCCC(C)C1)c1ccc2c(c1)OCO2 (stereo unspecified) | inconclusive: -32.3% |
| O=C(Nc1ccc(Cl)cc1)c1ccc2c(=O)n3c(nc2c1)CCCCC3 | inactive: 23.1% |
| Cc1cccn2c(=O)c(/C=C(\C#N)C(N)=O)c(N3CCN(Cc4ccc5c(c4)OCO5)CC3)nc12 | inactive: 0% |
| c1ccc(CNc2nc(NCc3ccccc3)c3ccccc3n2)cc1 | inactive: -11% |
| CNC(=S)N1CCN(c2c(F)cc3c(=O)c(C(=O)O)cn(C4CC4)c3c2OC)CC1C (stereo unspecified) | inconclusive: -37.1% |
| COc1ccc(-c2sc(Nc3ccccc3)n[n+]2-c2ccccc2)cc1Br | inactive: -1.42% |
| CCC(Sc1ccc2nnc(-c3cccnc3)n2n1)C(=O)O (stereo unspecified) | inconclusive: -42.8% |
| O=S(=O)(Cc1ccccc1Cl)N1CCCCC1 | inconclusive: -33.8% |
| CCOC(=O)c1ccc(NC(=O)NC2CCN(CC(=O)NCc3ccc4c(c3)OCO4)CC2)cc1 | inconclusive: -34% |
| COc1ccc(NS(=O)(=O)c2ccc3nc(COc4ccc5ccccc5c4)[nH]c3c2)cc1 | inconclusive: -35.6% |
| O=C(c1ccc(COc2ccccc2Cl)o1)N1CCN(Cc2ccc3c(c2)OCO3)CC1 | inactive: 11.7% and inactive: -9.54% |
| O=C(CCN1CCN(c2ccccc2)CC1)Nc1ccccc1F | inconclusive: -41.6% |
| Cc1ccc(-c2cc(-c3ccc(Cl)cc3)c(C#N)c(N)n2)o1 | inconclusive: -33.9% |
| CCOc1cc(/C=N/NC(N)=O)cc(Br)c1OCC(=O)Nc1ccccc1C | inactive: 43.4% |
| CC(=O)Oc1ccc(NC(=O)Cc2ccccc2)c(C(=O)O)c1 | inconclusive: -30.1% |

| SMILES | max response, negative = inhibition |
| --- | --- |
| CCN1C(=O)/C(=C2\C=Cc3ccccc3N2CC)SC1=S | active: -91% |
| COc1ccc(CCN(C)C2CCCN(C(=O)c3sccc3C)C2)cc1OC (stereo unspecified) | active: -63.7% |
| CC(C)C(=O)Nc1nnc(CCc2ccccc2)s1 | inactive: 2.42% |
| Cc1ccc(NC(=S)N/C(=N/S(=O)(=O)c2ccccc2)c2ccccc2)cc1 | inconclusive: -34.8% |
| O=C(c1ccccc1)N1CCC(c2nc(-c3ccc(S(=O)(=O)N4CCOCC4)cc3)no2)CC1 | inconclusive: -31.5% |
| COC(=O)[C@H](C)NC(=O)c1cc2c(cn1)[nH]c1ccccc12 | inactive: 0% |
| Cc1occc1-c1nnc(SCC(=O)Nc2ccccc2-c2ccccc2)n1C | active: -57.2% |
| Cc1cc(C)n2nc(S(=O)(=O)N(CC(C)C)CC(C)C)nc2n1 | inconclusive: -30.6% |
| N#Cc1c(NC(=O)/C=C/c2ccco2)sc2c1CCCC2 | active: -59.6% |
| Cc1ccc(NC(=O)/C(=C\c2cccnc2)NC(=O)c2ccco2)cc1 | inconclusive: -34.9% |
| COc1ccc(C(=O)NCCN2CCC(n3c(=O)[nH]c4ccccc43)CC2)cc1F | active: -91.2% |
| COc1ccc(OCC(=O)NNC(=S)NC(=O)c2ccc([N+](=O)[O-])cc2)cc1 | inconclusive: -32.8% |
| Cc1cccc(C)c1Cn1c(C)c(C(=O)NCc2ccc([N+](=O)[O-])cc2)sc1=O | inconclusive: -33.8% |
| COc1ccccc1Nc1ccc([N+](=O)[O-])cc1N | inconclusive: -34.4% |
| Cc1ccc(/C=N/N2CCN(Cc3ccccc3)CC2)s1 | inconclusive: -40.8% |
| O=C(Nc1ccc(-n2cnnn2)cc1)C1CCCN1C(=O)NC1CCCCC1 (stereo unspecified) | inconclusive: -34.6% |
| Cc1cccc(C)c1NC(=O)CSc1nc(COc2ccccc2)nc2ccccc12 | inconclusive: -32.3% |
| CSc1ccc(CN2CCC(C(=O)NCc3ccc(C)cc3)CC2)cc1 | inconclusive: -34.1% |
| CN(C)CCCN(C(=O)c1ccco1)c1nc(-c2ccc(Cl)cc2)cs1 | inconclusive: -37.2% |

Two neighbouring records from above:

| SMILES | max response, negative = inhibition |
| --- | --- |
| Cc1ccc(NC(=S)N/C(=N/S(=O)(=O)c2ccccc2)c2ccccc2)cc1 | inconclusive: -34.8% |
| O=C(c1ccccc1)N1CCC(c2nc(-c3ccc(S(=O)(=O)N4CCOCC4)cc3)no2)CC1 | inconclusive: -31.5% |

Continued:

| SMILES | max response, negative = inhibition |
| --- | --- |
| CNS(=O)(=O)c1cccc(C(=O)NCC(c2cccs2)N(C)C)c1 (stereo unspecified) | active: -72% |
| O=C(O)c1ccc(/C=N/Nc2ccc(F)cc2F)cc1 | inactive: -15.4% |
| CC1CCCCN1CCCNC(=O)C1CCN(c2nc3ccccc3o2)CC1 (stereo unspecified) | inconclusive: -40.7% |
| O=C(c1ccc([N+](=O)[O-])o1)N1CCc2ccccc2C1 | inconclusive: -44.7% |
| N=C1SC(CC(=O)Nc2ccccc2[N+](=O)[O-])C(=O)N1c1ccccc1 (stereo unspecified) | active: -61.7% |
| Cc1cc(Cn2nc(C(=O)NCc3cccc(C(F)(F)F)c3)cc2-c2ccccc2)on1 | active: -59.9% |
| CCCNC(=O)C1(C)CCN(Cc2ccc(Oc3ccccc3)cc2)C1 (stereo unspecified) | inconclusive: -32.7% |
| CCOc1ccc(OCC(O)CNC2CCN(Cc3ccccc3)CC2)cc1 (stereo unspecified) | inconclusive: -48.4% |
| N=c1c[n+](N2CCOCC2)[n-]o1 | active: -107% |
| O=C(COC(=O)c1cc(Cl)ccc1[N+](=O)[O-])Nc1cccc2ccccc12 | inconclusive: -36.4% |
| Cc1ccc(Cl)cc1-c1cc(C(=O)NCc2ccccc2)[nH]n1 | active: -51.1% |
| Oc1ccc(C[C@H]2CNC(=S)N2CC2CCCN2C[C@H](Cc2ccc(O)cc2)N2C[C@H](Cc3ccccc3)N(CC3CCCCC3)C2=S)cc1 (stereo partly specified) | active: -63.8% |
| Clc1ccccc1NN=Cc1ccccn1 | inactive: -25.7% |
| O=C(c1ccc(N2C(=O)C3CC=C(Cl)CC3C2=O)cc1)N1CCOCC1 (stereo unspecified) | inconclusive: -31.9% |
| CCOC(=O)Cn1c2c(c(-c3ccccc3OC)cc1=O)CCCC2 | inconclusive: -39.8% |
| CC(=NCc1ccccc1)c1ccc(O)cc1O | inconclusive: -38.8% |
| COc1ccc(S(=O)(=O)Nc2ccc(NC(C)=O)cc2)cc1 | inactive: -16% |
